Laboratory results: the supplement of paper PMC4604168 (melanoma cell lines)
This is one part of the list. Single values are uncertain, as repeats are few or missing.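 Imaging used 1,536-well plates; nuclei positive for cleaved PARP by antibody were divided by total DNA-stained nuclei to yield the apoptosis fraction. Doses for screening kept most cells viable, and cell lines differ markedly in resting and induced cleaved-PARP levels.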

These compounds were tested on RVH-421 (assay: cleaved PARP positive nuclei fraction relative to DMSO control; melanoma cells; higher = more apoptosis). Settings: library dose: low library concentration; 72 h.
With `Cc1ccc(Nc2nccc(N(C)c3ccc4c(C)n(C)nc4c3)n2)cc1S(N)(=O)=O` [Pazopanib] + O=C(Nc1cccc(Cl)c1)Nc1ncc(CCNc2ncnc3ccsc23)s1 [SNS314] (first compound 0.4 µM, partner dose 0.0008 µM) the “cleaved PARP positive nuclei fraction” value was 77.4%. For `CC[C@]1(O)C[C@H]2CN(CCc3c([nH]c4ccccc34)[C@@](C(=O)OC)(c3cc4c(cc3OC)N(C=O)[C@H]3[C@@](O)(C(=O)OC)[C@H](OC(C)=O)[C@]5(CC)C=CCN6CC[C@]43[C@@H]65)C2)C1` [vincristine] + COc1ccc(-c2ccc3c(N4CCOCC4)nc(N4C[C@@H](C)O[C@@H](C)C4)nc3n2)cc1CO [KU0063794] (first compound 0.0001 µM, partner dose 0.02 µM), the “cleaved PARP positive nuclei fraction” value was 87.7%. In the case of `O=c1[nH]nc(Sc2ncc([N+](=O)[O-])s2)n1-c1ccc2c(c1)OCCO2` + COc1cc(Nc2ncc(F)c(Nc3ccc4c(n3)NC(=O)C(C)(C)O4)n2)cc(OC)c1OC [Tamatinib] (first compound 0.2 µM, partner dose 0.4 µM), the “cleaved PARP positive nuclei fraction” value is reported as 59.5%. With `O=C(/C=C/c1cccnc1)NCCCCC1CCN(C(=O)c2ccccc2)CC1` + Cc1cc(N2CCOCC2)cc2[nH]c(-c3c(NC[C@@H](O)c4cccc(Cl)c4)cc[nH]c3=O)nc12 [BMS536924] (first compound 0.01 µM, partner dose 0.2 µM) the “cleaved PARP positive nuclei fraction” value was 239%. `Cc1cc(Nc2cc(N3CCN(C)CC3)nc(Sc3ccc(NC(=O)C4CC4)cc3)n2)n[nH]1` [Tozasertib] + CC1(C)NC(=O)N(c2ccc([N+](=O)[O-])c(C(F)(F)F)c2)C1=O [nilutamide] (first compound 0.006 µM, partner dose 1 µM) was tested, and the “cleaved PARP positive nuclei fraction” value was 27.1%. For `O=C(/C=C/c1cccnc1)NCCCCC1CCN(C(=O)c2ccccc2)CC1` + O=S(=O)(c1ccccc1)N(CC(F)(F)F)c1ccc(C(O)(C(F)(F)F)C(F)(F)F)cc1 [T0901317] (first compound 0.01 µM, partner dose 1.4 µM), the “cleaved PARP positive nuclei fraction” value was 41.9%. With `CC[C@]1(O)C[C@H]2CN(CCc3c([nH]c4ccccc34)[C@@](C(=O)OC)(c3cc4c(cc3OC)N(C=O)[C@H]3[C@@](O)(C(=O)OC)[C@H](OC(C)=O)[C@]5(CC)C=CCN6CC[C@]43[C@@H]65)C2)C1` [vincristine] + Cc1cc(N2CCOCC2)cc2[nH]c(-c3c(NC[C@@H](O)c4cccc(Cl)c4)cc[nH]c3=O)nc12 [BMS536924] (first compound 0.0001 µM, partner dose 0.2 µM) the “cleaved PARP positive nuclei fraction” value was 150%. For `O=c1[nH]nc(Sc2ncc([N+](=O)[O-])s2)n1-c1ccc2c(c1)OCCO2` + O=c1cc(-c2cccc3c2Sc2ccccc2S3)oc(N2CCOCC2)c1 [KU55933] (first compound 0.2 µM, partner dose 1 µM), the “cleaved PARP positive nuclei fraction” value was 73%. For `COc1cc([C@@H]2c3cc4c(cc3[C@@H](O[C@@H]3O[C@@H]5CO[C@@H](C)O[C@H]5[C@H](O)[C@H]3O)[C@H]3COC(=O)[C@H]23)OCO4)cc(OC)c1O` [etoposide] + O=C1NC(=O)/C(=C/c2ccc(-c3ccc(F)cc3O)o2)S1 [AS252424] (first compound 0.02 µM, partner dose 1 µM), the “cleaved PARP positive nuclei fraction” value was 113%. In the case of `Cc1cn(-c2cc(NC(=O)c3ccc(C)c(Nc4nccc(-c5cccnc5)n4)c3)cc(C(F)(F)F)c2)cn1` [nilotinib] + CCCCCCCCCCCC1=C(O)C(=O)C=C(O)C1=O [Embelin] (first compound 0.2 µM, partner dose 1.2 µM), the “cleaved PARP positive nuclei fraction” value is reported as 131%. `O=c1[nH]nc(Sc2ncc([N+](=O)[O-])s2)n1-c1ccc2c(c1)OCCO2` + CCCCCCCCCCCC1=C(O)C(=O)C=C(O)C1=O [Embelin] (first compound 0.2 µM, partner dose 1.2 µM) was tested, and the “cleaved PARP positive nuclei fraction” value was 135%. `O=c1[nH]nc(Sc2ncc([N+](=O)[O-])s2)n1-c1ccc2c(c1)OCCO2` + O=C(Nc1cccc(Cl)c1)Nc1ncc(CCNc2ncnc3ccsc23)s1 [SNS314] (first compound 0.2 µM, partner dose 0.0008 µM) was tested, and the “cleaved PARP positive nuclei fraction” value was 60.6%. In the case of `CCCCCCCCCCCCCCCCCCOP(=O)([O-])OC1CC[N+](C)(C)CC1` [Perifosine] + NC(=O)Nc1cc(-c2cccc(F)c2)sc1C(=O)N[C@H]1CCCNC1 [AZD7762] (first compound 0.4 µM, partner dose 0.02 µM), the “cleaved PARP positive nuclei fraction” value is reported as 98.5%. For `COc1cc([C@@H]2c3cc4c(cc3[C@@H](O[C@@H]3O[C@@H]5CO[C@@H](C)O[C@H]5[C@H](O)[C@H]3O)[C@H]3COC(=O)[C@H]23)OCO4)cc(OC)c1O` [etoposide] + COc1cc(N2CCC(N3CCN(C)CC3)CC2)ccc1Nc1ncc(Cl)c(Nc2ccccc2S(=O)(=O)C(C)C)n1 [NVP-TAE684] (first compound 0.02 µM, partner dose 0.08 µM), the “cleaved PARP positive nuclei fraction” value was 95.2%. In the case of `Cc1cc(Nc2cc(N3CCN(C)CC3)nc(Sc3ccc(NC(=O)C4CC4)cc3)n2)n[nH]1` [Tozasertib] + COc1cc(N2CCC(N3CCN(C)CC3)CC2)ccc1Nc1ncc(Cl)c(Nc2ccccc2S(=O)(=O)C(C)C)n1 [NVP-TAE684] (first compound 0.006 µM, partner dose 0.08 µM), the “cleaved PARP positive nuclei fraction” value is reported as 22.4%. In the case of `CCCCCCCCCCCCCCCCCCOP(=O)([O-])OC1CC[N+](C)(C)CC1` [Perifosine] + O=S(=O)(c1ccccc1)N(CC(F)(F)F)c1ccc(C(O)(C(F)(F)F)C(F)(F)F)cc1 [T0901317] (first compound 0.4 µM, partner dose 1.4 µM), the “cleaved PARP positive nuclei fraction” value is reported as 134%. `CC[C@]1(O)C[C@H]2CN(CCc3c([nH]c4ccccc34)[C@@](C(=O)OC)(c3cc4c(cc3OC)N(C=O)[C@H]3[C@@](O)(C(=O)OC)[C@H](OC(C)=O)[C@]5(CC)C=CCN6CC[C@]43[C@@H]65)C2)C1` [vincristine] + Cn1cncc1[C@@](N)(c1ccc(Cl)cc1)c1ccc2c(c1)c(-c1cccc(Cl)c1)cc(=O)n2C [tipifarnib] (first compound 0.0001 µM, partner dose 0.01 µM) was tested, and the “cleaved PARP positive nuclei fraction” value was 57%. For `Cc1cn(-c2cc(NC(=O)c3ccc(C)c(Nc4nccc(-c5cccnc5)n4)c3)cc(C(F)(F)F)c2)cn1` [nilotinib] + CN(NC(=O)CC(=O)NN(C)C(=S)c1ccccc1)C(=S)c1ccccc1 [STA4783] (first compound 0.2 µM, partner dose 0.006 µM), the “cleaved PARP positive nuclei fraction” value was 85.1%. In the case of `O=C(/C=C/c1cccnc1)NCCCCC1CCN(C(=O)c2ccccc2)CC1` + O=C(Nc1ccccc1)c1cc([N+](=O)[O-])ccc1Cl [GW9662] (first compound 0.01 µM, partner dose 2 µM), the “cleaved PARP positive nuclei fraction” value is reported as 149%. In the case of `CC[C@]1(O)C[C@H]2CN(CCc3c([nH]c4ccccc34)[C@@](C(=O)OC)(c3cc4c(cc3OC)N(C=O)[C@H]3[C@@](O)(C(=O)OC)[C@H](OC(C)=O)[C@]5(CC)C=CCN6CC[C@]43[C@@H]65)C2)C1` [vincristine] + O=c1cc(-c2cccc3c2Sc2ccccc2S3)oc(N2CCOCC2)c1 [KU55933] (first compound 0.0001 µM, partner dose 1 µM), the “cleaved PARP positive nuclei fraction” value is reported as 132%. For `N#CC[C@H](C1CCCC1)n1cc(-c2ncnc3[nH]ccc23)cn1` [ruxolitinib] + NCC(=O)Nc1ccc(-n2nc(C(F)(F)F)cc2-c2ccc3c(ccc4ccccc43)c2)cc1 [OSU03012] (first compound 1 µM, partner dose 1 µM), the “cleaved PARP positive nuclei fraction” value was 104%. In the case of `O=c1[nH]nc(Sc2ncc([N+](=O)[O-])s2)n1-c1ccc2c(c1)OCCO2` + CC(C)CCN1c2nc(Nc3cc(F)c(O)c(F)c3)ncc2N(C)C(=O)C1C [BID1870] (first compound 0.2 µM, partner dose 0.2 µM), the “cleaved PARP positive nuclei fraction” value is reported as 76.3%. For `Cc1cn(-c2cc(NC(=O)c3ccc(C)c(Nc4nccc(-c5cccnc5)n4)c3)cc(C(F)(F)F)c2)cn1` [nilotinib] + O=C(Nc1cccc(Cl)c1)Nc1ncc(CCNc2ncnc3ccsc23)s1 [SNS314] (first compound 0.2 µM, partner dose 0.0008 µM), the “cleaved PARP positive nuclei fraction” value was 45.8%. With `Cc1ccc(Nc2nccc(N(C)c3ccc4c(C)n(C)nc4c3)n2)cc1S(N)(=O)=O` [Pazopanib] + O=S(=O)(c1ccccc1)N(CC(F)(F)F)c1ccc(C(O)(C(F)(F)F)C(F)(F)F)cc1 [T0901317] (first compound 0.4 µM, partner dose 1.4 µM) the “cleaved PARP positive nuclei fraction” value was 111%. With `CCCCCCCCCCCCCCCCCCOP(=O)([O-])OC1CC[N+](C)(C)CC1` [Perifosine] + CC(C)(C)c1cnc(CSc2cnc(NC(=O)C3CCNCC3)s2)o1 [SNS-032] (first compound 0.4 µM, partner dose 0.01 µM) the “cleaved PARP positive nuclei fraction” value was 75.7%.
